Assay [1] concerns the target T1, FLAG-TRIM65 (human) (UniProt Q6PJ69).
T1 sequence: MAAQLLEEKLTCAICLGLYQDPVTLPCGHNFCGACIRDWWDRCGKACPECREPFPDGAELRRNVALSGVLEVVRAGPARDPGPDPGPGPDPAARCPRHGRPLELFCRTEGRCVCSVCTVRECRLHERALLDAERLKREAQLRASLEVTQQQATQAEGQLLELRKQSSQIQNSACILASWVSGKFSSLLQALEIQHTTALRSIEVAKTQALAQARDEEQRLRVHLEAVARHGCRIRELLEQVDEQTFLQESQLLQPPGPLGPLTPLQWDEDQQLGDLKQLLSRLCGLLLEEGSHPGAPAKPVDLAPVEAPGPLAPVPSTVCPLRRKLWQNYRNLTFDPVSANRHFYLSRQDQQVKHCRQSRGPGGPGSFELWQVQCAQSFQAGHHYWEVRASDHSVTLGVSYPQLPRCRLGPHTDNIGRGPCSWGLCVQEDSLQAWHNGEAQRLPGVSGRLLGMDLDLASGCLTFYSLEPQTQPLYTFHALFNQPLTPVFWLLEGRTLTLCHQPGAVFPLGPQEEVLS
As to the kind of experiment: co-IP; lysates of HEK293T cells expressing FLAG-TRIM65 and HA-BTG3; lysis buffer 0.5% Lubrol-Px, 50 mM KCl, 2 mM CaCl2, 20% glycerol, 50 mM Tris-HCl pH 7.4; protein-A or G beads, 4 °C.

Assay [2] deals with T2, recombinant GST-TRIM65 protein (human) (UniProt Q6PJ69).
T2 sequence: T1 sequence
The assay can be described thus: pull-down; purified GST-TRIM65 or GST incubated overnight at 4 °C with lysates of HEK293T cells transfected with HA-BTG3 or its deletion mutants; Glutathione Sepharose 4B beads; immunoblotting; only the target purified. In general terms: A western blot detects proteins with antibodies after separation by electrophoresis.

Assay [3] addresses T3, endogenous TRIM65 (human (endogenous in ACHN)) (UniProt Q6PJ69).
T3 sequence: T1 sequence
The assay can be described thus: co-IP; endogenous proteins in ACHN cells, with specific TRIM65 and BTG3 antibodies.

The target of assay [4] is T4, BTG3 of the co-IP with GFP-TRIM65 and its deletion mutants (UniProt Q14201).
T4 sequence: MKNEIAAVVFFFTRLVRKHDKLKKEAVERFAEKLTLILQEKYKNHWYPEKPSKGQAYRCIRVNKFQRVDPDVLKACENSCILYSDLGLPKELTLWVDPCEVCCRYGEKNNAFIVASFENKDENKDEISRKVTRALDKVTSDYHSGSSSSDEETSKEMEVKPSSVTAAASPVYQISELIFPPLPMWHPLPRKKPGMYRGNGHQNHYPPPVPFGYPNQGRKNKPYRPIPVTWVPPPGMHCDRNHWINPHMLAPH
The assay can be described thus: co-IP; GFP-TRIM65 and its deletion mutants with BTG3, following MG132 treatment; cell line not stated.

No constants are given. Whether binding was seen depends on the method and setting. Binding seen in cells or lysates may run through a third protein. Some entries that bind do so weakly or less than the wild type. For some of these results: Sequences can lack the tags named with a protein.

B1: HA-BTG3 (protein, UniProt Q14201 1-252)
chain: T4 sequence
Turning to B1, the binding result in assay [1] and in assay [2] was “binds” in each case.

B2: endogenous BTG3 (protein, UniProt Q14201 1-252)
chain: T4 sequence
As for B2, the binding entry in assay [3] is “binds”.

B3: GFP-TRIM65 (full-length) (protein, UniProt Q6PJ69 1-517)
chain: T1 sequence
For the molecule B3, the binding entry in assay [4] is “binds”.

(Values after publication PMC11111765.)
